Measured values taken from patent publication US20260232701A1, “[…] AN […] REUPTAKE INHIBITOR FOR USE IN THE TREATMENT OF TREAMENT- RESISTANT DEPRESSION” (Compass Pathfinder Limited, priority 2021, published 2026).
At least one structure is not confirmed: it was looked up by name or label, or the drawing left a doubt.

Experiments:
[1] = system: participants with treatment-resistant depression (TRD); assay: Montgomery-Asberg Depression Rating Scale (MADRS), Phase IIb open-label study of psilocybin adjunct to SSRI; assay type: in vivo, human; details: for MADRS total score, (Min, Max) / MADRS total score, Change from baseline (Min, Max): 25 mg + SSRI, N = 19
Method: The effectiveness of 25 mg COMP360 as an adjunctive therapy in participants with TRD was explored.
The study was a Phase IIb, international multicentre, fixed-dose, open-label study. The study population included adult men and women, 18 years of age or older, with TRD. […] The duration of the current episode must be at least 3 months but not more than 2 years.
The psilocybin administration session (V3, day 1) will last approximately 6 h and will be supported by a trained therapist. The study drug will be administered simultaneously to up to six participants. Blood pressure will be monitored continuously during the session. The COMP360 administration session may be video recorded for training and adherence monitoring. After the acute effects of psilocybin pass, participants will be evaluated for safety and accompanied home. On day 2 (V4), the day following psilocybin administration, participants will be seen in person for a safety check, assessment of suicidality and clinical and self-report assessments, and to discuss their experience during the psilocybin administration session. All sessions between the therapist and the participant may be audio recorded for adherence monitoring and quality assurance.
The primary objective of this study is to evaluate the efficacy of 25 mg of psilocybin adjunct to serotonergic antidepressants in TRD participants, as assessed by the change in the Montgomery-Asberg Depression Rating Scale (MADRS) total score from baseline. Baseline is defined as the assessment score obtained on Day −1. The primary time point is week 3.
(§1) Additional objectives of this study are to assess the efficacy of psilocybin […] on the: • (a) proportion of subjects with response defined as a ≥50% decrease in MADRS total score from baseline to week 3. • (b) proportion of subjects with remission (defined as a MADRS total score ≤10) at week 3 post psilocybin administration. • (c) changes from baseline Clinical Global Impression-Severity scale (CGI-S) at week 3 post psilocybin administration.

[2] = system: participants with treatment-resistant depression (TRD); assay: Clinical Global Impression - Severity scale (CGI-S), same study; assay type: in vivo, human; details: single 25 mg dose adjunct to SSRI
Method: as §1

[3] = system: participants with treatment-resistant depression (TRD); assay: Generalised Anxiety Disorder-7 item scale (GAD-7), same study; assay type: in vivo, human; details: by visit; single 25 mg dose adjunct to SSRI
[4] = system: participants with treatment-resistant depression (TRD); assay: Positive and Negative Affect Schedule (PANAS), same study; assay type: in vivo, human; details: day 2; single 25 mg dose adjunct to SSRI
[5] = system: participants with treatment-resistant depression (TRD); assay: EQ-5D-3L / EQ-VAS self-rated health, same study; assay type: in vivo, human; details: week 3; single 25 mg dose adjunct to SSRI
[6] = system: participants with treatment-resistant depression (TRD); assay: 5-Dimensional Altered States of Consciousness scale (5D-ASC), same study; assay type: in vivo, human; details: day of psilocybin session; 25 mg adjunct to SSRI
Hygroscopicity = assay type: physicochemical; details: high humidity and when added to water; water of hydration lost rapidly on drying
[7] = single 25 mg dose adjunct to SSRI

In the case of `CN(C)CCc1c[nH]c2cccc(OP(=O)(O)O)c12` [COMP360, psilocybin], the “MADRS total score, (Min, Max)” value ([1]; Baseline (before dosing)) is reported as “(18, 39)”, the “MADRS total score, (Min, Max)” value ([1]; Day 2) is reported as “(0, 39)” and the “MADRS total score, Change from baseline (Min, Max)” value (shortened to “MADRS total score, Change”) ([1]; Day 2) is reported as “(−37, 6)”. For the same molecule, the “MADRS total score, (Min, Max)” value ([1]; Week 1) was “(1, 41)”, the “MADRS total score, Change” value ([1]; Week 1) was “(−34, 4)” and the “MADRS total score, (Min, Max)” value ([1]; Week 2) was “(2, 40)”. For the same molecule, the “MADRS total score, Change” value ([1]; Week 2) was “(−35, 4)”, the “MADRS total score, (Min, Max)” value ([1]; Week 3) was “(1, 41)” and the “MADRS total score, Change” value ([1]; Week 3) was “(−32, 5)”. The “reduction in MADRS score, combination of psilocybin and an SSRI compared to patients administered only psilocybin” value ([1]; combination with SSRI vs psilocybin only) was “greater reduction”, the “participants who started new treatment for depression” value ([1]; during the 3 weeks follow-up) was “No participants started new treatment for depression” and the “onset of MADRS remission” value [1, 7] was “Rapid remission was observed from day 2”. The “onset of MADRS response” value [1, 7] was “rapid response was observed from day 2”, the “onset of action (MADRS)” value [1, 7] was “Rapid onset of action” and the “onset of CGI-S response” value [2] was “Rapid response was observed from day 2”. The “severity of depression according to clinical judgment (CGI-S)” value [2] was “apparent rapid reduction in severity of depression”, the “anxiety symptoms (GAD-7 total score)” value [3] was “clear reduction of anxiety symptoms” and the “PANAS Negative Affect change from baseline” value [4] was “lower Negative Affect”. For the same molecule, the “PANAS Positive Affect change from baseline” value [4] was “Higher Positive Affect”, the “self-reported overall health (EQ-VAS)” value [5] was “overall better health at week 3” and the “5D-ASC, all primary dimensions” value [6] was “Expected findings in line with pharmacological profile of psilocybin in previous studies”. For the same molecule, the Hygroscopicity (Hygroscopicity) was “Psilocybin forms Hydrate A at high humidity”.
